# According to PubChem BioAssay AID445 (National Center for Advancing Translational Sciences (NCATS), 2006):
# Some of the results follow. These are further read-outs of the screen, such as a control signal, another cell line or another target. No call is given for them. Most of these compounds were active or inconclusive in the main read-out, so they are no random draw. Potencies come from curve fits of mixed quality, noted in brackets.
# Assay: IkB Signaling
# Details: ABC-DLBCL IkBa-CBG/CBR dual luciferase ratio (green luciferase fused to IkBa over red control in OCI-Ly3 lymphoma cells), 4 h; measured here: control luc red channel unless noted
# How it was run: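 Luminescence ratio of IκBα-fused green versus native red beetle luciferase in OCI-Ly3 cells, 4 h post-doxycycline with compound; red signal alone, scaled from basal (0%) to zero light (-100%), flagged nonspecific or cytotoxic effects.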
row,Compound,AC50
1,Cc1ccc(-n2nc3c(N4CCC(C(=O)N5CCCCC5)CC4)nnc(C)c3c2C)cc1,"10 µM [falling, partial curve]"
2,CCCc1cc(N2CCN(c3cc(Cl)ccc3C)CC2)n2cnnc2n1,"15.8 µM [falling, partial curve]"
3,c1ccc(-n2ncc3c(NCc4cccnc4)ncnc32)cc1,"15.8 µM [falling, partial curve]"
4,Cc1sc2c(c1C)c(=O)n(CCc1ccccc1)c(=O)n2Cc1cccc(F)c1,"25.1 µM [falling, partial curve, poor fit]"
5,O=C(C1CCC1)N1CCc2cc(S(=O)(=O)NCCN3CCN(c4ccccc4F)CC3)ccc21,"15.8 µM [falling, partial curve]"
6,CCn1c(=O)cc(SCC(=O)Nc2ccc3c(c2)OCCO3)c2ccccc21,"15.8 µM [falling, partial curve]"
7,Cc1ccc(-n2c(=O)c3c(c4cc(C)ccc4n3C)n(CC(=O)NCc3ccccc3Cl)c2=O)cc1,"25.1 µM [falling, single point]"
8,CCc1nnc2n1N=C(c1ccc(-c3cc(Cl)ccc3Cl)o1)CS2,"6.31 µM [falling, partial curve]"
9,COc1ccc(CCC(=O)NC2CC(=O)N(c3ccc(C)cc3)C2)cc1 (configuration not stated),"3.98 µM [falling, partial curve]"
10,CCCCNC(=O)C(CC)Sc1nnc(-c2cccc(F)c2)c(-c2cccc(F)c2)n1 (configuration not stated),"25.1 µM [falling, single point]"
11,CCCCOC(=O)c1ccc(Nc2ncnc3[nH]ncc23)cc1,"3.98 µM [rising, partial curve]"
12,CC(=O)Nc1c(C)nn(-c2ccccc2)c1N1CCC(C(=O)NCc2ccc(Cl)cc2)CC1,"20 µM [falling, single point]"
13,Cc1cc(C)cc(N2CC(c3nc(-c4ccccc4C)no3)CC2=O)c1 (configuration not stated),"25.1 µM [falling, single point]"
14,CCOC(=O)c1ccc(NC(=O)CN(c2ccc(C)cc2)S(=O)(=O)c2c(C)noc2C)cc1,"20 µM [falling, single point]"
15,Cc1nc2c(C(=O)NCCc3ccc(Cl)cc3)cnn2c(C)c1Cc1c(F)cccc1Cl,"31.6 µM [falling, partial curve]"
16,COc1ccc(-c2cc3nc(C)c(CCC(=O)N4CCN(c5cccc(Cl)c5)CC4)c(C)n3n2)c(OC)c1,"2 µM [falling, full curve]"
17,O=C(NCc1cccs1)c1ccc2c(c1)N(Cc1ccccc1Cl)C(=O)c1ccccc1S2,"5.01 µM [falling, full curve]"
18,Cc1ccccc1-c1ncnn1-c1sc2c(c1C#N)CCCCC2,"0.0794 µM [falling, full curve]"
19,COc1ccc(CNC(=O)c2cc3cc(C)ccc3n2C)cc1,"10 µM [falling, single point]"
20,Cn1c(=O)c2c(nc(SCC(=O)Nc3ccc(OC(F)(F)F)cc3)n2Cc2cccc(C(F)(F)F)c2)n(C)c1=O,"12.6 µM [falling, partial curve]"
21,COc1ccc(N2CCN(c3nc4ccccc4n3CC(=O)c3ccccc3)CC2)cc1,"39.8 µM [falling, single point]"

row,Compound,AC50
1,CCOC(=O)c1sc2ccccc2c1S(=O)(=O)Nc1c(C)cccc1C,"0.794 µM [falling, full curve, poor fit]"
2,COc1ccccc1OCc1csc(NC(=O)c2ccco2)n1,"12.6 µM [falling, partial curve]"
3,Cc1cc(NC(=O)N2CC=C(c3c[nH]c4ccccc34)CC2)ccc1Br,"7.94 µM [falling, partial curve]"
4,O=C(Cn1c(=O)n(-c2ccc(F)cc2)c(=O)c2sc3ccccc3c21)N1CCCC1,"25.1 µM [falling, single point]"
5,Cc1ccc(CSC2=Nc3ccccc3C3=NC(CCC(=O)N4CCN(c5ccccc5)CC4)C(=O)N23)cc1 (configuration not stated),"39.8 µM [falling, single point]"
6,COc1cc(CNC(=O)c2cc(-c3ccccc3)n[nH]2)cc(OC)c1OC,"39.8 µM [falling, single point]"
7,COc1ccc(-n2nc(C(=O)N3CCC(C)CC3)c3c4ccccc4n(C)c3c2=O)cc1Cl,"20 µM [falling, partial curve]"
8,COc1cccc(CNC(=O)Cn2cc3c(n2)-c2c(oc(C(=O)N4CCCC4)c2C)CC3)c1OC,"25.1 µM [falling, single point]"
9,O=C(NCc1ccc2c(c1)CCN2C(=O)c1ccc(F)cc1)c1ccc(Br)o1,"12.6 µM [falling, partial curve]"
10,Cc1cc(C)c(NC(=O)Cn2nc3c(cc2=O)CCCC3)c(C)c1,"25.1 µM [rising, single point] [measured here: IkB-luc green channel]"
11,CCOc1ccc(NC(=O)N(CCN2CCOCC2)Cc2ccc3c(c2)CCCN3CC)cc1,"20 µM [falling, partial curve, poor fit]"
12,CCCS(=O)(=O)c1ncc(Cl)c(C(=O)N(Cc2ccccc2)Cc2ccco2)n1,"5.01 µM [falling, partial curve]"
13,CCOc1ccc(-c2oc3ccccc3c(=O)c2O)cc1OCC,"2 µM [rising, partial curve]"
14,CCOC(=O)c1c(NC(=O)c2nn(CC)cc2Br)c(C#N)cn1-c1ccccc1,"15.8 µM [falling, partial curve]"
15,COc1ccccc1NC(=O)N1CC(=O)Nc2sc3c(c2C1c1ccccc1)CCCC3 (configuration not stated),"15.8 µM [falling, partial curve]"
16,COc1ccccc1NC(=O)C1=C(C)Nc2c(C(=O)Nc3ccc(F)cc3)cnn2C1c1ccc(Cl)cc1 (configuration not stated),"7.94 µM [falling, partial curve]"
17,COc1ccc2c(Sc3ccccc3)c(C(=O)NCc3cccc(OC)c3OC)[nH]c2c1,"10 µM [falling, partial curve]"
18,CCOc1ccc(CCNC(=O)CCCc2nnc3n(CC(C)C)c(=O)c4sccc4n23)cc1,"15.8 µM [falling, partial curve]"
19,CCOC(=O)c1cc(S(=O)(=O)Nc2ccc(OC)c(Cl)c2)[nH]n1,"20 µM [falling, partial curve]"
20,CCc1nc2sc3ccccc3c(=O)c2c(=O)n1Cc1ccco1,"2.51 µM [falling, full curve]"
21,Cc1ccc(C(c2nnnn2CCc2ccccc2)N2CCSCC2)cc1 (configuration not stated),"25.1 µM [falling, partial curve]"

# Among those listed so far, these contain a cyano group:
row,Compound,AC50
18,Cc1ccccc1-c1ncnn1-c1sc2c(c1C#N)CCCCC2,"0.0794 µM [falling, full curve]"
14,CCOC(=O)c1c(NC(=O)c2nn(CC)cc2Br)c(C#N)cn1-c1ccccc1,"15.8 µM [falling, partial curve]"

# Later entries.

row,Compound,AC50
1,COc1ccccc1Oc1nc2c(c(=O)n(C)c(=O)n2C)n1Cc1cccc(Br)c1,"10 µM [falling, partial curve]"
2,CC(=O)Nc1ccc(S(=O)(=O)Nc2cccc(-c3ccc(N4CCC(C)CC4)nn3)c2)cc1,"3.98 µM [falling, partial curve]"
3,CCCc1noc(-c2ccc(N3CCCCC3)c([N+](=O)[O-])c2)n1,"0.00631 µM [rising, full curve, poor fit]"
4,Cc1nc2c(cnn2-c2ccccc2Cl)c(=O)n1-c1ccc(C(C)C)cc1,"20 µM [falling, single point]"
5,CCc1ccc(S(=O)(=O)c2nnn3c2nc(NCCc2ccccc2)c2sccc23)cc1,"7.94 µM [falling, full curve]"
6,COc1cccc(-c2nc(SCC(=O)Nc3ccc4c(c3)OCO4)c(-c3ccccc3)[nH]2)c1,"6.31 µM [falling, partial curve]"
7,CN(C)S(=O)(=O)N(CC(=O)NCCSCc1ccccc1Cl)c1ccccc1,"15.8 µM [falling, partial curve]"
8,CCCCC(=O)c1c(O)c2ccccc2oc1=O,"3.16 µM [falling, full curve]"
9,COc1ccc(CCn2cc3c(c2-c2ccccc2Br)c(=O)n(C)c(=O)n3C)cc1OC,"39.8 µM [falling, single point]"
10,Cc1noc(C)c1COC(=O)c1cccc(S(=O)(=O)N2CCCCCC2)c1,"7.94 µM [falling, partial curve]"
11,COc1cccc(-c2cn3c(n2)sc2cc(C(=O)NCc4cccs4)ccc23)c1,"25.1 µM [falling, single point]"
12,COc1ccc2oc(=O)cc(CN3CCN(C(=O)c4ccccc4F)CC3)c2c1,"39.8 µM [falling, single point]"
13,O=C(Nc1nc(-c2cccs2)cs1)c1cccc(S(=O)(=O)N2CCCCC2)c1,"3.16 µM [falling, full curve, poor fit]"
14,Cc1[nH]nc2c1-c1nc3ccccc3nc1C(C)(C)C2,"12.6 µM [falling, partial curve]"
15,Cc1ccc(C)c(Cn2c(=O)c3c(nc4n3CCN4c3ccc(F)cc3)n(C)c2=O)c1,"3.16 µM [falling, single point]"
16,CCn1c(CN2CCC(C)CC2)nc2cc(NC(=O)c3ccccc3[N+](=O)[O-])ccc21,"0.794 µM [falling, partial curve]"
17,CCOC(=O)c1c(C)[nH]c(CCC(=O)NCCCN2CCN(c3cccc(Cl)c3)CC2)c1C,"31.6 µM [falling, single point]"
18,CCOc1ccc(-n2c(Cc3ccccc3)nnc2SCc2nc(-c3ccccc3C)no2)cc1,"31.6 µM [falling, partial curve]"
19,COc1cc(-c2nc(-c3cccc(C)c3)no2)cc(OC)c1OC,"12.6 µM [falling, partial curve]"
20,CCS(=O)(=O)N1CCc2cc(C(=O)N3CCN(c4cccc(C(F)(F)F)c4)CC3)ccc21,"25.1 µM [falling, single point]"
